Measured values reported in patent publication US20220119492A1.
No constants are given. Whether binding was seen depends on the method and setting. Some binding calls cover weakened binding; strength is not graded here. Tags and fused reporters may be left off the sequences shown.

Experiments:
[1] = biological target: T1, human IL-2Rβ (CD122 protein, Fc Tag) (27-239) (human) (UniProt P14784); experiment: competition ELISA; competitor: phage clone SEQ ID NO 170
T1 sequence (looked up): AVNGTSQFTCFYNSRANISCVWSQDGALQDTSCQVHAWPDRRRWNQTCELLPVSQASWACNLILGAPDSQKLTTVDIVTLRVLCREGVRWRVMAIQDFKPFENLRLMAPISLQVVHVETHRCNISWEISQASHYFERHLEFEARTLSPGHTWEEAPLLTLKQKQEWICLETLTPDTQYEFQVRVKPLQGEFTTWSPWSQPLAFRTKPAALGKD

[2] = biological target: T1, human IL-2Rβ (CD122 protein, Fc Tag) (27-239) (human); experiment: competition ELISA; competitor: phage clone SEQ ID NO 58
[3] = biological target: T1, human IL-2Rβ (CD122 protein, Fc Tag) (27-239) (human); experiment: competition ELISA; competitor: phage clone SEQ ID NO 1034
[4] = biological target: T1, human IL-2Rβ (CD122 protein, Fc Tag) (27-239) (human); experiment: competition ELISA; competitor: phage clone SEQ ID NO 83

Measured: binding

NMCLVGDYWPSCQI [IL-2Rβ ligand SEQ ID NO: 169]
binds: all assays above
